{"source": "PubChem BioAssay AID1259254 (NCATS, 2017)", "purpose": "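Gene knock-downs that lead to re-replication, shown by excess G2 DNA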 (primary screen)", "cells": "human HCT116 colorectal cancer cells", "reagent": "single siRNA against human genes", "time to read-out": "3 days", "measurement": "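Nuclei stained with Hoechst and imaged; cell-cycle phase assigned by DNA content; G2 share scaled per plate, non-targeting siRNA 0%, GMNN siRNA 100%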", "scale": "G2 robust z-score and G2 cells, % of GMNN control: higher = more G2 cells, more excess DNA replication", "active means": "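Active siRNAs have a G2 robust z of 5 or more median absolute deviations over the median, which in these data means about 38% or higher of GMNN control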", "note": "The whole screen tested about 59,000 reagents; below is a part drawn at random. Of all reagents, about 1,550 (2.6%) were called active. 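G2 share is only a proxy for re-replication; each gene was hit by three separate siRNAs, and active genes were retested.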 Unmarked entries are inactive. The numbers tell different reagents against one gene apart. Not all columns of the deposit are shown. Reagent sequences are not shown. The record does not give: the amount of reagent."}
{"Gene": "FUT8 (GeneID 2530)", "reagent": 1, "G2 robust z-score": 0.982, "G2 cells, % of GMNN control": 9.87}
{"Gene": "FUT8 (GeneID 2530)", "reagent": 2, "G2 robust z-score": 1.36, "G2 cells, % of GMNN control": 12.5}
{"Gene": "FUT8 (GeneID 2530)", "reagent": 3, "G2 robust z-score": 0.441, "G2 cells, % of GMNN control": 6.07}
{"Gene": "LCT (GeneID 3938)", "reagent": 1, "G2 robust z-score": 2.97, "G2 cells, % of GMNN control": 23.9}
{"Gene": "LCT (GeneID 3938)", "reagent": 2, "G2 robust z-score": "10.8 (active)", "G2 cells, % of GMNN control": 79.2}
{"Gene": "LCT (GeneID 3938)", "reagent": 3, "G2 robust z-score": -0.764, "G2 cells, % of GMNN control": -2.4}
{"Gene": "C4BPA (GeneID 722)", "reagent": 1, "G2 robust z-score": -0.848, "G2 cells, % of GMNN control": -3}
{"Gene": "C4BPA (GeneID 722)", "reagent": 2, "G2 robust z-score": 0.166, "G2 cells, % of GMNN control": 4.14}
{"Gene": "C4BPA (GeneID 722)", "reagent": 3, "G2 robust z-score": -0.0879, "G2 cells, % of GMNN control": 2.35}
{"Gene": "TBP (GeneID 6908)", "reagent": 1, "G2 robust z-score": -0.59, "G2 cells, % of GMNN control": -1.19}
{"Gene": "TBP (GeneID 6908)", "reagent": 2, "G2 robust z-score": -0.695, "G2 cells, % of GMNN control": -1.92}
{"Gene": "TBP (GeneID 6908)", "reagent": 3, "G2 robust z-score": -0.82, "G2 cells, % of GMNN control": -2.8}
{"Gene": "ABCC5 (GeneID 10057)", "reagent": 1, "G2 robust z-score": -1.03, "G2 cells, % of GMNN control": -4.25}
{"Gene": "ABCC5 (GeneID 10057)", "reagent": 2, "G2 robust z-score": -0.721, "G2 cells, % of GMNN control": -2.1}
{"Gene": "ABCC5 (GeneID 10057)", "reagent": 3, "G2 robust z-score": -0.785, "G2 cells, % of GMNN control": -2.55}
{"Gene": "CHRM4 (GeneID 1132)", "reagent": 1, "G2 robust z-score": -1.17, "G2 cells, % of GMNN control": -5.25}
{"Gene": "CHRM4 (GeneID 1132)", "reagent": 2, "G2 robust z-score": -0.811, "G2 cells, % of GMNN control": -2.74}
{"Gene": "CHRM4 (GeneID 1132)", "reagent": 3, "G2 robust z-score": 1.39, "G2 cells, % of GMNN control": 12.7}
{"Gene": "GP6 (GeneID 51206)", "reagent": 1, "G2 robust z-score": -0.561, "G2 cells, % of GMNN control": -0.978}
{"Gene": "GP6 (GeneID 51206)", "reagent": 2, "G2 robust z-score": -0.63, "G2 cells, % of GMNN control": -1.46}
{"Gene": "GP6 (GeneID 51206)", "reagent": 3, "G2 robust z-score": -0.869, "G2 cells, % of GMNN control": -3.15}
{"Gene": "GPR162 (GeneID 27239)", "reagent": 1, "G2 robust z-score": -0.355, "G2 cells, % of GMNN control": 0.47}
{"Gene": "GPR162 (GeneID 27239)", "reagent": 2, "G2 robust z-score": "6.9 (active)", "G2 cells, % of GMNN control": 51.5}
{"Gene": "GPR162 (GeneID 27239)", "reagent": 3, "G2 robust z-score": 2.5, "G2 cells, % of GMNN control": 20.5}

Reagents listed so far called active (2):
{"Gene": "LCT (GeneID 3938)", "reagent": 2, "G2 robust z-score": "10.8 (active)", "G2 cells, % of GMNN control": 79.2}
{"Gene": "GPR162 (GeneID 27239)", "reagent": 2, "G2 robust z-score": "6.9 (active)", "G2 cells, % of GMNN control": 51.5}
